Test results published in the supplement of paper PMC10849652.
This is one part of the list.

Amino acid sequences for entries named in this document (tags omitted). A change or cut given only in a name is not applied to a line headed by its entry.
UniProt Q9UL45: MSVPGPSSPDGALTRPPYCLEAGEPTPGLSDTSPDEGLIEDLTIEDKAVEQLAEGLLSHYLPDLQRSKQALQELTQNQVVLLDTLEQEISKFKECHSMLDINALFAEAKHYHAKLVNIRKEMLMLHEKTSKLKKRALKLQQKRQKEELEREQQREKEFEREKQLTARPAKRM
UniProt Q8WUW1: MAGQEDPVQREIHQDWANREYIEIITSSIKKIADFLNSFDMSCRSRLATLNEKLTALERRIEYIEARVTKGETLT
UniProt Q9UHQ4: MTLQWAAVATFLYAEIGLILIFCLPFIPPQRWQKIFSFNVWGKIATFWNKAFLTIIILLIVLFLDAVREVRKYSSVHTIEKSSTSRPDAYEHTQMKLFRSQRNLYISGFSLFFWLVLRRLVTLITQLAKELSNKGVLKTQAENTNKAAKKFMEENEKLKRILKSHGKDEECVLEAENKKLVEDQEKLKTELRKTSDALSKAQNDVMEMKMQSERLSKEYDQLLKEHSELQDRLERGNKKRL
UniProt Q5VW32: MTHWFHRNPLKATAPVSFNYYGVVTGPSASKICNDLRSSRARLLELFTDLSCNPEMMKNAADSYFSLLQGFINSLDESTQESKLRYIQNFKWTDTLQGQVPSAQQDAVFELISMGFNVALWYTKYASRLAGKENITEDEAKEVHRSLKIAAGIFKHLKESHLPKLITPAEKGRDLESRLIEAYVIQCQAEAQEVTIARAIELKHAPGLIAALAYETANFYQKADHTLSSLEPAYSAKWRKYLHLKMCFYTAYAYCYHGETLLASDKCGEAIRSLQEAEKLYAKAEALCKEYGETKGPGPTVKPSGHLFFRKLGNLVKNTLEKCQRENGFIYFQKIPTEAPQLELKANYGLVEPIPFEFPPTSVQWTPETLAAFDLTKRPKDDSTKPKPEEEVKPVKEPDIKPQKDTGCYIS
UniProt Q8NFC6: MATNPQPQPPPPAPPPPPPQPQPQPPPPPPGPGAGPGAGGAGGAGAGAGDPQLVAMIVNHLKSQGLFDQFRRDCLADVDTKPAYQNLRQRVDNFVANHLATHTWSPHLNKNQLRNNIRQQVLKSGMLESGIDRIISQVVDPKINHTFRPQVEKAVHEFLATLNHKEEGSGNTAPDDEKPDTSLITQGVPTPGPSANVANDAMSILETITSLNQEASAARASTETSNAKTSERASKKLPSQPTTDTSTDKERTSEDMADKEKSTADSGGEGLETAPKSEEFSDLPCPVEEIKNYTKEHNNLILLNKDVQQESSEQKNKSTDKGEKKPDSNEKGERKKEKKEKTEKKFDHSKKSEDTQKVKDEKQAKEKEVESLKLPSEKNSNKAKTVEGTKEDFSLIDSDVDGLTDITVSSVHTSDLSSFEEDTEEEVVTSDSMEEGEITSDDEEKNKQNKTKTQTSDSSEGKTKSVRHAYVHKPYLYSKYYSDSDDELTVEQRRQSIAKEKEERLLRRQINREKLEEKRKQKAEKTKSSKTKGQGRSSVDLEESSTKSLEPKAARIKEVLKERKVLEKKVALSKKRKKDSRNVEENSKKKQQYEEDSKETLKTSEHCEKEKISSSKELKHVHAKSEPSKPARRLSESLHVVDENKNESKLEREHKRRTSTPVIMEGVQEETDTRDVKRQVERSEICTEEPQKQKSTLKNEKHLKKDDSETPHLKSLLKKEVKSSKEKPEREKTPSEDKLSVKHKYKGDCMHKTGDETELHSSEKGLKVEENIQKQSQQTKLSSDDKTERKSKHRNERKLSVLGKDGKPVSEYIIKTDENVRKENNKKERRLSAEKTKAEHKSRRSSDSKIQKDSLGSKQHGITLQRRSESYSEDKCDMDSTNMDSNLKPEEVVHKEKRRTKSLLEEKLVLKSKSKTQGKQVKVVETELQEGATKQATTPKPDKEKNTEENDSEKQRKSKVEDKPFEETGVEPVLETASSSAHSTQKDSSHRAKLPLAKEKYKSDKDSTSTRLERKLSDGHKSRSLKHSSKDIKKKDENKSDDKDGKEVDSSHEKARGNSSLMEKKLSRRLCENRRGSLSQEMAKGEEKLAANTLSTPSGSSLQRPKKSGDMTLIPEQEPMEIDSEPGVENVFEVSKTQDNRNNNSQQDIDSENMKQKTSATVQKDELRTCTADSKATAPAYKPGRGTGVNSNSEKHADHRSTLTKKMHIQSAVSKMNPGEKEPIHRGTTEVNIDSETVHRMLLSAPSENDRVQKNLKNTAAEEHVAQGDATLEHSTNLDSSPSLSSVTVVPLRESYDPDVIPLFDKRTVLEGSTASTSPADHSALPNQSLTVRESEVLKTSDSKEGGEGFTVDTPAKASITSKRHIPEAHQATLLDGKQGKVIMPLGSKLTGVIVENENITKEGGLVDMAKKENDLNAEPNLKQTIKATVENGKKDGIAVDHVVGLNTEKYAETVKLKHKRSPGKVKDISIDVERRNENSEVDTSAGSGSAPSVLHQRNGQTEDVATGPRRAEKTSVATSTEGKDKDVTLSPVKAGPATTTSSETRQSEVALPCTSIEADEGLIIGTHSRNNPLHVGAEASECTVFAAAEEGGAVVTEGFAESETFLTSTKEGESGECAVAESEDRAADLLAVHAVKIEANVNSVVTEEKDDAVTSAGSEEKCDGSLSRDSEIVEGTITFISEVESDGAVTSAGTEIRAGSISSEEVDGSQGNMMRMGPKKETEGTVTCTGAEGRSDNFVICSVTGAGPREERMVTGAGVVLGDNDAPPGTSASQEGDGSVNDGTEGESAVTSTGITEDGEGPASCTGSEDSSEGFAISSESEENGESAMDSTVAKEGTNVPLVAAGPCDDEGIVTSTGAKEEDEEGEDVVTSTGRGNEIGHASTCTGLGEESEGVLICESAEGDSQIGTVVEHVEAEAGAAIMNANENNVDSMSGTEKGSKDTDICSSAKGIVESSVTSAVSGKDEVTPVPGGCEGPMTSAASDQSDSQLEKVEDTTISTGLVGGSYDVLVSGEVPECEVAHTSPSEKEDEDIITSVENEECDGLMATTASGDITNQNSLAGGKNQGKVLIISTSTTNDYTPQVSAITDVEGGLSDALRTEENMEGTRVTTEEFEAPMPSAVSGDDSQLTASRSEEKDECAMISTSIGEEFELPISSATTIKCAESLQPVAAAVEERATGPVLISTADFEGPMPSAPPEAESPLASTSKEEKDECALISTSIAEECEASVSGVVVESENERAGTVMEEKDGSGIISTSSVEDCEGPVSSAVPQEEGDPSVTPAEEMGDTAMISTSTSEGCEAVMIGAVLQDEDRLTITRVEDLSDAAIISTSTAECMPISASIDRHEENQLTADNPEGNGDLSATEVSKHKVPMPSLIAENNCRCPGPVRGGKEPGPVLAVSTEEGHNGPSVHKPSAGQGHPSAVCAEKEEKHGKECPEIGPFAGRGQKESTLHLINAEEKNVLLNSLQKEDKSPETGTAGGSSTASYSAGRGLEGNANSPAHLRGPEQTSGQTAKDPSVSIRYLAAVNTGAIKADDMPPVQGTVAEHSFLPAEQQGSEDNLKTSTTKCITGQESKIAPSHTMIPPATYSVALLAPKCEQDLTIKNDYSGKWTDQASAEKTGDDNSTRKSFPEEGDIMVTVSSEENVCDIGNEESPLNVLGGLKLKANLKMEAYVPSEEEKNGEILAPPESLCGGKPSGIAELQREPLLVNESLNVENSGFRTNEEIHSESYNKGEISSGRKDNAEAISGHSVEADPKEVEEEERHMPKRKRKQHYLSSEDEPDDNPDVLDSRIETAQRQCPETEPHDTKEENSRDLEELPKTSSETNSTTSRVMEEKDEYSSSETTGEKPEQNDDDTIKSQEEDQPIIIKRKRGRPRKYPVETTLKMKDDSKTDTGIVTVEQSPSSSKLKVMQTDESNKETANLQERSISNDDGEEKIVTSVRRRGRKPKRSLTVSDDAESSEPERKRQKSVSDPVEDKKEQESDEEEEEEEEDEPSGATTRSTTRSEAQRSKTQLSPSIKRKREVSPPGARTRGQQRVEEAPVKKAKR
UniProt P46736, whole entry, looked up: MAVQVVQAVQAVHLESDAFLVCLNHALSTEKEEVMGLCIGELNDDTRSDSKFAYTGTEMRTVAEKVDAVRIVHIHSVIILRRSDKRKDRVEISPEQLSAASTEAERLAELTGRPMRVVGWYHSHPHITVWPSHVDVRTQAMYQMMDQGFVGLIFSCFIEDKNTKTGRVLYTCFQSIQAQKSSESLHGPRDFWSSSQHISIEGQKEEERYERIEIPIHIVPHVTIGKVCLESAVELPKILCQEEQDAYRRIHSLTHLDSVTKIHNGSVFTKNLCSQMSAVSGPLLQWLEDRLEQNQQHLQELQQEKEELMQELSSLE
UniProt P46379: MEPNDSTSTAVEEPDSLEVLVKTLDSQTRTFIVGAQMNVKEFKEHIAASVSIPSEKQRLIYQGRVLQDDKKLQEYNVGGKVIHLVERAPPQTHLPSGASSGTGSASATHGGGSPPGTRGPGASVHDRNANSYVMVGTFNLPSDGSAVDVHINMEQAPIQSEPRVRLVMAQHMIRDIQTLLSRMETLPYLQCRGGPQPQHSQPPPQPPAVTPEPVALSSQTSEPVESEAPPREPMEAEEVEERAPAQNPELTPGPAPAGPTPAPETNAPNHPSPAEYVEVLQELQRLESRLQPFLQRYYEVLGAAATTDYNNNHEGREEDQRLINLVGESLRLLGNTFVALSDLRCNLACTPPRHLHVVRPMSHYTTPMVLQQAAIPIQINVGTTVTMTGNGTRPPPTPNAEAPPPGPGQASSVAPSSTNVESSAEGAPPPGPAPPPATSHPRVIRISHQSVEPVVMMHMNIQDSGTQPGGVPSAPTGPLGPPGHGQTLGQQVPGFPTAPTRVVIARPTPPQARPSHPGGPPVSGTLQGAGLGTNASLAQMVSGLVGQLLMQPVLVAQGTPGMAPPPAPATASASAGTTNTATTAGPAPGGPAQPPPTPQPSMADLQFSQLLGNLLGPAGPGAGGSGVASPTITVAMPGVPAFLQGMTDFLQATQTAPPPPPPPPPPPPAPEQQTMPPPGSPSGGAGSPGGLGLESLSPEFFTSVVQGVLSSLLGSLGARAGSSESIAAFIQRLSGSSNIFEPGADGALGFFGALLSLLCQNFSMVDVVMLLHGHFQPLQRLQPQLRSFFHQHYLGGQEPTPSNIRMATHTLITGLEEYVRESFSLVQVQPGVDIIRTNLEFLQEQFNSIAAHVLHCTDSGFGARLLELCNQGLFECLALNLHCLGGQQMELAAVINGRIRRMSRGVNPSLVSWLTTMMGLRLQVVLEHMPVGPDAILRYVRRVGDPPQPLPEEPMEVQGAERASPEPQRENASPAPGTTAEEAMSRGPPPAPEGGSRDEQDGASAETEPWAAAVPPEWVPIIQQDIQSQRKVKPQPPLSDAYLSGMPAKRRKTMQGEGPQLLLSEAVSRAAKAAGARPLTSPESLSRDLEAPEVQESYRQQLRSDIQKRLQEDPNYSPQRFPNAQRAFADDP
UniProt Q6QNY0: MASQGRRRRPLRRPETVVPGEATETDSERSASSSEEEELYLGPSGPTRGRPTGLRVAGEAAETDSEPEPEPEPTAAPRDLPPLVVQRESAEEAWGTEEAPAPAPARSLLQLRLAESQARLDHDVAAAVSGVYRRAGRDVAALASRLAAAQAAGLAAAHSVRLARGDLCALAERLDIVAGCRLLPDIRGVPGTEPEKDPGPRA
UniProt Q9UHR4: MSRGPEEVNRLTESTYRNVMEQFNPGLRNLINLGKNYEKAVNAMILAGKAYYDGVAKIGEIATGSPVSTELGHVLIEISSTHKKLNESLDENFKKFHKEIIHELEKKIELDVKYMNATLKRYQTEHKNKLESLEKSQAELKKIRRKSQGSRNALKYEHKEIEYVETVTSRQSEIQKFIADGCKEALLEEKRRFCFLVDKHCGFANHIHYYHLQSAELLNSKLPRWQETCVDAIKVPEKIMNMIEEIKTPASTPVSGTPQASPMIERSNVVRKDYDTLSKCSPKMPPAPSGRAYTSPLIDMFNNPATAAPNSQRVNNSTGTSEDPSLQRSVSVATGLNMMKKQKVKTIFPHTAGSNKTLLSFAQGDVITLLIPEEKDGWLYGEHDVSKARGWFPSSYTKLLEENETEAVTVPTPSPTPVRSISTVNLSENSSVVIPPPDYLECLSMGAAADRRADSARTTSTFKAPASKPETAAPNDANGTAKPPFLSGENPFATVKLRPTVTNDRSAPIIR
UniProt Q9Y276: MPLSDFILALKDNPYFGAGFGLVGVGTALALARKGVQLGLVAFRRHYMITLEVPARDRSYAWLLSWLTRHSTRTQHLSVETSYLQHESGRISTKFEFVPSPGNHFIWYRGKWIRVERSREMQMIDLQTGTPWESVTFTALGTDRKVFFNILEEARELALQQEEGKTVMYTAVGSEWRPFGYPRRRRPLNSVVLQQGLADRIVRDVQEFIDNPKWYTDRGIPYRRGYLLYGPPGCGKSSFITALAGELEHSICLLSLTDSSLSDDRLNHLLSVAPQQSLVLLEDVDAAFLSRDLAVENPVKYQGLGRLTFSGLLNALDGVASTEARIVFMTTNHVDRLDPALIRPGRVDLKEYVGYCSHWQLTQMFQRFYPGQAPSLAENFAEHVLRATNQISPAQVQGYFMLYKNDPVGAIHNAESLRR

Tests used:
Assay in all cases: log2 fold change, soluble protein after heating vs DMSO (PISA); higher = thermal stabilisation; K562 lysate, 10 uM; active = over 0.2 and 3.5 SD of the protein, either way, in both replicates (recomputed)
lapatinib = compound: CS(=O)(=O)CCNCc1ccc(-c2ccc3ncnc(Nc4ccc(OCc5cccc(F)c5)c(Cl)c4)c3c2)o1 [lapatinib]
Summary of the method: (§1)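 Following dounce homogenisation of K562 pellets in PBS pH 7.4 with 1 mM MgCl2, crude extract at 1 mg/mL protein was incubated for 30 min with 10 μM compound. Aliquots were then heated for 3 min over 48°C-58°C and pooled, NP-40 was added to 0.5% at 4°C, and soluble protein was recovered as the supernatant at 21,000xg for 90 min. Channel-sum-equalised TMTpro 16plex LC-MS/MS quantified this protein. Each value, from duplicates, is a log-two fold change in thermal stability relative to solvent controls.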

pictilisib = compound: CS(=O)(=O)N1CCN(Cc2cc3nc(-c4cccc5[nH]ncc45)nc(N4CCOCC4)c3s2)CC1 [pictilisib]
Summary of the method: as §1

crizotinib = compound: C[C@@H](Oc1cc(-c2cnn(C3CCNCC3)c2)cnc1N)c1c(Cl)ccc(F)c1Cl [crizotinib]
Summary of the method: as §1

[1] = compound: C[C@H](C1=CC=C(C=C1)C(=O)NC2=C3C=CNC3=NC=C2)N
Summary of the method: as §1

duvelisib = compound: C[C@H](Nc1ncnc2nc[nH]c12)c1cc2cccc(Cl)c2c(=O)n1-c1ccccc1 [duvelisib]
Summary of the method: as §1

gandotinib = compound: Cc1cc(Nc2cc(CN3CCOCC3)c3nc(C)c(Cc4ccc(Cl)cc4F)n3n2)n[nH]1 [gandotinib]
Summary of the method: as §1

tozasertib = compound: Cc1cc(Nc2cc(N3CCN(C)CC3)nc(Sc3ccc(NC(=O)C4CC4)cc3)n2)n[nH]1 [tozasertib]
Summary of the method: as §1

doramapimod = compound: Cc1ccc(-n2nc(C(C)(C)C)cc2NC(=O)Nc2ccc(OCCN3CCOCC3)c3ccccc23)cc1 [doramapimod]
Summary of the method: as §1

bafetinib = compound: Cc1ccc(NC(=O)c2ccc(CN3CC[C@H](N(C)C)C3)c(C(F)(F)F)c2)cc1Nc1nccc(-c2cncnc2)n1 [bafetinib]
Summary of the method: as §1

[2] = compound: Cc1cccc(CC(=O)N2CCc3c2ccc(-c2cn(C)c4ncnc(N)c24)c3F)n1
Summary of the method: as §1

nilotinib = compound: Cc1cn(-c2cc(NC(=O)c3ccc(C)c(Nc4nccc(-c5cccnc5)n4)c3)cc(C(F)(F)F)c2)cn1 [nilotinib]
Summary of the method: as §1

[3] = compound: Cc1nc(Nc2n[nH]c3c2CN(C(=O)N[C@H](CN(C)C)c2ccccc2)C3(C)C)c2sccc2n1
Summary of the method: as §1

dasatinib = compound: Cc1nc(Nc2ncc(C(=O)Nc3c(C)cccc3Cl)s2)cc(N2CCN(CCO)CC2)n1 [dasatinib]
Summary of the method: as §1

[4] = compound: Cc1ncc(-c2ccnc(Nc3ccc(S(C)(=O)=O)cc3)n2)n1C(C)C
Summary of the method: as §1

[5] = compound: Cn1cc(-c2ccc3c(c2)CCN3C(=O)Cc2cccc(C(F)(F)F)c2)c2c(N)ncnc21
Summary of the method: as §1

quisinostat = compound: Cn1cc(CNCC2CCN(c3ncc(C(=O)NO)cn3)CC2)c2ccccc21 [quisinostat]
Summary of the method: as §1

tipifarnib = compound: Cn1cncc1[C@@](N)(c1ccc(Cl)cc1)c1ccc2c(c1)c(-c1cccc(Cl)c1)cc(=O)n2C [tipifarnib]
Summary of the method: as §1

[6] = compound: NC(=O)Nc1cc(-c2cccc(F)c2)sc1C(=O)N[C@H]1CCCNC1
Summary of the method: as §1

[7] = compound: NC(=O)c1cnc(N[C@@H]2CCCC[C@@H]2N)nc1Nc1cccc(-n2nccn2)c1
Summary of the method: as §1

[8] = compound: NC1(c2ccc(-c3nc4ccn5c(=O)[nH]nc5c4cc3-c3ccccc3)cc2)CCC1
Summary of the method: as §1

Measured: log2 fold change

BLOC1S6 (UniProt Q9UL45)
inactive: lapatinib -0.018 | pictilisib -0.037 | crizotinib 0.062 | [1] 0.048 | duvelisib 0.021 | gandotinib 0.031 | tozasertib -0.11 | doramapimod -0.011 | bafetinib 0.033 | [2] -0.066 | nilotinib -0.073 | [3] 0.036 | dasatinib 0.093 | [4] 0.093 | [5] -0.008 | quisinostat 0.042 | tipifarnib -0.063 | [6] -0.049 | [7] -0.023 | [8] 0.096

BRK1 isoform 2 (UniProt Q8WUW1)
inactive: lapatinib 0.021 | pictilisib 0.009 | crizotinib 0.095 | [1] 0.162 | duvelisib 0.001 | gandotinib -0.148 | tozasertib -0.001 | doramapimod 0 | bafetinib 0.005 | [2] -0.072 | nilotinib 0.048 | [3] 0.003 | dasatinib 0.024 | [4] 0.131 | [5] 0.001 | quisinostat 0.187 | tipifarnib 0.006 | [6] -0.051 | [7] -0.008 | [8] 0.023

BCAP29 isoform 2 (UniProt Q9UHQ4)
inactive: lapatinib 0.006 | pictilisib -0.009 | crizotinib 0 | [1] -0.046 | duvelisib -0.037 | gandotinib -0.01 | tozasertib 0.048 | doramapimod -0.06 | bafetinib 0.023 | [2] 0.05 | nilotinib 0.021 | [3] -0.014 | dasatinib 0.084 | [4] 0.003 | [5] -0.004 | quisinostat 0.046 | tipifarnib -0.038 | [6] -0.006 | [7] 0.028 | [8] 0.016

BAG5 isoform 2 (UniProt Q9UL15)
inactive: lapatinib 0.008 | pictilisib -0.012 | crizotinib -0.044 | [1] -0.036 | duvelisib 0.019 | gandotinib 0.026 | tozasertib 0.017 | doramapimod 0.019 | bafetinib -0.068 | [2] 0.052 | nilotinib 0.039 | [3] 0.023 | dasatinib -0.012 | [4] 0 | [5] 0.008 | quisinostat -0.049 | tipifarnib 0.021 | [6] 0.01 | [7] -0.001 | [8] -0.01

2 records picked at random from those above, as already listed:
BCAP29 isoform 2 (UniProt Q9UHQ4)
inactive: lapatinib 0.006 | pictilisib -0.009 | crizotinib 0 | [1] -0.046 | duvelisib -0.037 | gandotinib -0.01 | tozasertib 0.048 | doramapimod -0.06 | bafetinib 0.023 | [2] 0.05 | nilotinib 0.021 | [3] -0.014 | dasatinib 0.084 | [4] 0.003 | [5] -0.004 | quisinostat 0.046 | tipifarnib -0.038 | [6] -0.006 | [7] 0.028 | [8] 0.016

BLOC1S6 (UniProt Q9UL45)
inactive: lapatinib -0.018 | pictilisib -0.037 | crizotinib 0.062 | [1] 0.048 | duvelisib 0.021 | gandotinib 0.031 | tozasertib -0.11 | doramapimod -0.011 | bafetinib 0.033 | [2] -0.066 | nilotinib -0.073 | [3] 0.036 | dasatinib 0.093 | [4] 0.093 | [5] -0.008 | quisinostat 0.042 | tipifarnib -0.063 | [6] -0.049 | [7] -0.023 | [8] 0.096

The results go on.

BROX (UniProt Q5VW32)
inactive: lapatinib -0.034 | pictilisib -0.06 | crizotinib -0.009 | [1] 0.023 | duvelisib 0.014 | gandotinib -0.097 | tozasertib 0.006 | doramapimod 0.023 | bafetinib -0.017 | [2] -0.049 | nilotinib 0.031 | [3] -0.042 | dasatinib -0.031 | [4] -0.004 | [5] 0.004 | quisinostat 0.001 | tipifarnib -0.005 | [6] 0.007 | [7] -0.015 | [8] 0.008

BOD1L1 (UniProt Q8NFC6)
inactive: lapatinib 0 | pictilisib -0.023 | crizotinib 0.016 | [1] -0.023 | duvelisib 0.017 | gandotinib 0.072 | tozasertib 0.009 | doramapimod -0.006 | bafetinib -0.017 | [2] 0.04 | nilotinib -0.018 | [3] 0.005 | dasatinib -0.004 | [4] 0.018 | [5] -0.02 | quisinostat -0.031 | tipifarnib -0.004 | [6] -0.001 | [7] 0.007 | [8] 0

BCKDK (UniProt O14874)
inactive: lapatinib -0.056 | pictilisib -0.028 | crizotinib 0.096 | [1] -0.038 | duvelisib -0.008 | gandotinib -0.095 | tozasertib -0.039 | doramapimod -0.033 | bafetinib 0.012 | [2] -0.003 | nilotinib 0.008 | [3] 0.001 | dasatinib 0.023 | [4] -0.061 | [5] 0.058 | quisinostat 0.094 | tipifarnib -0.058 | [6] -0.092 | [7] -0.029 | [8] 0.052

BRCC3 (UniProt P46736)
inactive: lapatinib -0.022 | pictilisib -0.018 | crizotinib -0.027 | [1] -0.073 | duvelisib 0.068 | gandotinib 0.039 | tozasertib 0.044 | doramapimod 0.063 | bafetinib -0.03 | [2] -0.011 | nilotinib 0.026 | [3] 0.043 | dasatinib 0 | [4] 0.017 | [5] 0.032 | quisinostat -0.01 | tipifarnib 0.023 | [6] -0.011 | [7] -0.012 | [8] 0.008

BPHL (UniProt Q86WA6)
active: pictilisib -0.366
inactive: lapatinib -0.099 | crizotinib 0.099 | [1] 0.051 | duvelisib 0.061 | gandotinib -0.077 | tozasertib 0.034 | doramapimod -0.003 | bafetinib 0.132 | [2] -0.058 | nilotinib -0.049 | [3] 0.084 | dasatinib 0.008 | [4] -0.043 | [5] 0.055 | quisinostat -0.02 | tipifarnib 0.01 | [6] -0.03 | [7] 0.016 | [8] 0.022

BAG6 isoform 3 (UniProt P46379)
inactive: lapatinib -0.002 | pictilisib -0.02 | crizotinib -0.019 | [1] 0.035 | duvelisib 0.016 | gandotinib -0.074 | tozasertib -0.018 | doramapimod -0.05 | bafetinib 0 | [2] 0.004 | nilotinib 0.031 | [3] -0.008 | dasatinib -0.051 | [4] 0 | [5] 0.002 | quisinostat 0.009 | tipifarnib -0.017 | [6] 0.024 | [7] -0.016 | [8] -0.007

BLOC1S3 (UniProt Q6QNY0)
inactive: lapatinib 0.019 | pictilisib -0.007 | crizotinib 0.002 | [1] -0.026 | duvelisib -0.014 | gandotinib 0.081 | tozasertib -0.023 | doramapimod 0.03 | bafetinib -0.047 | [2] -0.018 | nilotinib -0.058 | [3] 0 | dasatinib -0.002 | [4] 0.013 | [5] 0.001 | quisinostat -0.009 | tipifarnib 0.002 | [6] -0.012 | [7] -0.044 | [8] 0.06

BTF3 (UniProt P20290)
inactive: lapatinib 0.004 | pictilisib 0.016 | crizotinib 0.036 | [1] 0.011 | duvelisib 0.025 | gandotinib 0.001 | tozasertib -0.013 | doramapimod -0.034 | bafetinib -0.009 | [2] -0.035 | nilotinib -0.013 | [3] 0.019 | dasatinib 0 | [4] -0.014 | [5] -0.002 | quisinostat 0.004 | tipifarnib 0.03 | [6] -0.018 | [7] -0.022 | [8] -0.005

BAIAP2L1 (UniProt Q9UHR4)
inactive: lapatinib 0.017 | pictilisib -0.022 | crizotinib 0.017 | [1] 0.023 | duvelisib -0.003 | gandotinib 0.008 | tozasertib 0 | doramapimod 0.01 | bafetinib 0.057 | [2] -0.006 | nilotinib -0.033 | [3] -0.01 | dasatinib 0.037 | [4] -0.011 | [5] -0.006 | quisinostat 0.015 | tipifarnib 0 | [6] -0.006 | [7] 0.009 | [8] 0.032

BNIP2 (UniProt J3KN59)
inactive: lapatinib -0.015 | pictilisib -0.036 | crizotinib -0.017 | [1] -0.09 | duvelisib -0.067 | gandotinib 0.025 | tozasertib 0.12 | doramapimod 0.008 | bafetinib 0.078 | [2] 0.029 | nilotinib 0.108 | [3] -0.013 | dasatinib 0.01 | [4] 0.172 | [5] 0.001 | quisinostat 0.053 | tipifarnib 0.027 | [6] 0.014 | [7] -0.03 | [8] 0.027

BCS1L (UniProt Q9Y276)
inactive: lapatinib -0.022 | pictilisib -0.056 | crizotinib -0.117 | [1] 0.136 | duvelisib -0.116 | gandotinib -0.156 | tozasertib 0.018 | doramapimod -0.01 | bafetinib 0.013 | [2] 0.028 | nilotinib -0.017 | [3] -0.002 | dasatinib -0.05 | [4] 0.051 | [5] 0.053 | quisinostat 0.013 | tipifarnib -0.019 | [6] 0.019 | [7] 0.03 | [8] 0.027

BCOR (UniProt Q6W2J9)
inactive: lapatinib -0.099 | pictilisib 0.085 | crizotinib -0.216 | [1] -0.362 | duvelisib 0.05 | gandotinib 0.152 | tozasertib 0.045 | doramapimod -0.058 | bafetinib -0.087 | [2] 0.369 | nilotinib -0.128 | [3] 0.114 | dasatinib -0.04 | [4] 0.033 | [5] 0.117 | quisinostat -0.327 | tipifarnib 0.072 | [6] 0.095 | [7] 0 | [8] 0
